Measurements as given in EP0107890B1, “Mammalian PGRF” (THE SALK INSTITUTE FOR BIOLOGICAL STUDIES, priority 1982, dated 1986).
At least one peptide structure holds a part that was inferred or is arguable (an end, a ring closure or a residue).

Legend:
pituitary cells = assay: in vitro growth hormone release assay in rat pituitary cell cultures (immunoreactive GH by radioimmunoassay); format: cell-based; details: for potency relative to native PGRF(1-44): comparator: native PGRF(1-44); for biological potency: additional testing, no comparator stated
Description: To determine the effectiveness of the peptides to promote the release of growth hormone, in vitro assays are carried out using synthetic PGRF(1-40) of Example II in side-by-side comparison with equimolar concentrations of the extracted and purified native PGRF (1-40) and of a GRF Reference Standard having a known effectiveness to promote the release of growth hormone from pituitary cells. The GRF Reference standard is described and defined in Brazeau, et al., Endocrinology, Vol. 110, A538(1982) and is an amount of a preparation of rat hypothalamic origin that produces a half-maximal response in terms of GH release in a pituitary cell monolayer bioassay. Cultures are used which include cells of rat pituitary glands removed some four to five days previously. Both cultures of a defined standard medium and cultures which are considered optimal for the secretion of growth hormone are used for the comparative testing, in the general manner described in Brazeau, et al. Regulatory Peptides, 1, 255, 1981. Incubation with the substance to be tested is carried out for 3 to 4 hours, and aliquots of the culture medium are removed and processed to measure their contents in immunoreactive GH(ir GH) by a well-characterized radioimmunoassay.

normal male rats = assay: in vivo secretion of pituitary growth hormone after injection into anesthetized rats; details: injected into rats
Excerpt: In addition to the in vitro tests for secretion of growth hormone, in vivo experiments were also run by injecting the synthetic peptide into normal male rats about 200 g. body weight, anesthetized with pentobarbital.

Row | SMILES | potency relative to native PGRF(1-44) (pituitary cells) | biological potency (pituitary cells) | other results
1 | CC[C@H](C)[C@H](NC(=O)[C@H](C)NC(=O)[C@H](CC(=O)O)NC(=O)[C@H](C)NC(=O)[C@@H](N)Cc1ccc(O)cc1)C(=O)N[C@@H](Cc1ccccc1)C(=O)N[C@H](C(=O)N[C@@H](CC(N)=O)C(=O)N[C@@H](CO)C(=O)N[C@@H](Cc1ccc(O)cc1)C(=O)N[C@@H](CCCNC(=N)N)C(=O)N[C@@H](CCCCN)C(=O)N[C@H](C(=O)N[C@@H](CC(C)C)C(=O)NCC(=O)N[C@@H](CCC(N)=O)C(=O)N[C@@H](CC(C)C)C(=O)N[C@@H](CO)C(=O)N[C@@H](C)C(=O)N[C@@H](CCCNC(=N)N)C(=O)N[C@@H](CCCCN)C(=O)N[C@@H](CC(C)C)C(=O)N[C@@H](CC(C)C)C(=O)N[C@@H](CCC(N)=O)C(=O)N[C@@H](CC(=O)O)C(=O)N[C@H](C(=O)N[C@@H](CCSC)C(=O)N[C@@H](CO)C(=O)N[C@@H](CCCNC(=N)N)C(=O)N[C@@H](CCC(N)=O)C(=O)N[C@@H](CCC(N)=O)C(=O)NCC(=O)N[C@@H](CCC(=O)O)C(=O)N[C@@H](CO)C(=O)N[C@@H](CC(N)=O)C(=O)N[C@@H](CCC(N)=O)C(=O)N[C@@H](CCC(=O)O)C(=O)N[C@@H](CCCNC(=N)N)C(=O)NCC(=O)N[C@@H](C)C(=O)N[C@@H](CCCNC(=N)N)C(=O)N[C@@H](C)C(=O)N[C@@H](CCCNC(=N)N)C(=O)N[C@@H](CC(C)C)C(=O)O)[C@@H](C)CC)C(C)C)[C@@H](C)O [Example I, PGRF(1-44) free acid] | somewhat less potency than native PGRF(1-44) | – | –
2 | CC[C@H](C)[C@H](NC(=O)[C@H](C)NC(=O)[C@H](CC(=O)O)NC(=O)[C@H](C)NC(=O)[C@@H](N)Cc1ccc(O)cc1)C(=O)N[C@@H](Cc1ccccc1)C(=O)N[C@H](C(=O)N[C@@H](CC(N)=O)C(=O)N[C@@H](CO)C(=O)N[C@@H](Cc1ccc(O)cc1)C(=O)N[C@@H](CCCNC(=N)N)C(=O)N[C@@H](CCCCN)C(=O)N[C@H](C(=O)N[C@@H](CC(C)C)C(=O)NCC(=O)N[C@@H](CCC(N)=O)C(=O)N[C@@H](CC(C)C)C(=O)N[C@@H](CO)C(=O)N[C@@H](C)C(=O)N[C@@H](CCCNC(=N)N)C(=O)N[C@@H](CCCCN)C(=O)N[C@@H](CC(C)C)C(=O)N[C@@H](CC(C)C)C(=O)N[C@@H](CCC(N)=O)C(=O)N[C@@H](CC(=O)O)C(=O)N[C@H](C(=O)N[C@@H](CCSC)C(=O)N[C@@H](CO)C(=O)N[C@@H](CCCNC(=N)N)C(=O)N[C@@H](CCC(N)=O)C(=O)N[C@@H](CCC(N)=O)C(=O)NCC(=O)N[C@@H](CCC(=O)O)C(=O)N[C@@H](CO)C(=O)N[C@@H](CC(N)=O)C(=O)N[C@@H](CCC(N)=O)C(=O)N[C@@H](CCC(=O)O)C(=O)N[C@@H](CCCNC(=N)N)C(=O)NCC(=O)N[C@@H](C)C(=O)N[C@@H](CCCNC(=N)N)C(=O)N[C@@H](C)C(=O)N[C@@H](CCCNC(=N)N)C(=O)N[C@@H](CC(C)C)C(N)=O)[C@@H](C)CC)C(C)C)[C@@H](C)O [Example III, PGRF(1-44)-amide] | substantially the same potency as native PGRF(1-44) | – | GH-releasing activity in vivo (normal male rats): the same type of GH-releasing activity as exhibited by PGRF(1-40)
3 | CC[C@H](C)[C@H](NC(=O)[C@H](C)NC(=O)[C@H](CC(=O)O)NC(=O)[C@H](C)NC(=O)[C@@H](N)Cc1ccc(O)cc1)C(=O)N[C@@H](Cc1ccccc1)C(=O)N[C@H](C(=O)N[C@@H](CC(N)=O)C(=O)N[C@@H](CO)C(=O)N[C@@H](Cc1ccc(O)cc1)C(=O)N[C@@H](CCCNC(=N)N)C(=O)N[C@@H](CCCCN)C(=O)N[C@H](C(=O)N[C@@H](CC(C)C)C(=O)NCC(=O)N[C@@H](CCC(N)=O)C(=O)N[C@@H](CC(C)C)C(=O)N[C@@H](CO)C(=O)N[C@@H](C)C(=O)N[C@@H](CCCNC(=N)N)C(=O)N[C@@H](CCCCN)C(=O)N[C@@H](CC(C)C)C(=O)N[C@@H](CC(C)C)C(=O)N[C@@H](CCC(N)=O)C(=O)N[C@@H](CC(=O)O)C(=O)N[C@H](C(=O)N[C@@H](CCSC)C(=O)N[C@@H](CO)C(=O)N[C@@H](CCCNC(=N)N)C(=O)N[C@@H](CCC(N)=O)C(=O)N[C@@H](CCC(N)=O)C(=O)NCC(=O)N[C@@H](CCC(=O)O)C(=O)N[C@@H](CO)C(=O)N[C@@H](CC(N)=O)C(=O)N[C@@H](CCC(N)=O)C(=O)N[C@@H](CCC(=O)O)C(=O)N[C@@H](CCCNC(=N)N)C(=O)NCC(=O)N[C@@H](C)C(N)=O)[C@@H](C)CC)C(C)C)[C@@H](C)O [Example V, PGRF(1-40)-amide] | – | – | biological potency relative to the synthetic peptide tested in Example VII (pituitary cells; comparator: synthetic PGRF(1-40) of Example II): substantially twice the biological potency
4 | CC[C@H](C)[C@H](NC(=O)[C@H](C)NC(=O)[C@H](CC(=O)O)NC(=O)[C@H](C)NC(=O)[C@@H](N)Cc1ccc(O)cc1)C(=O)N[C@@H](Cc1ccccc1)C(=O)N[C@H](C(=O)N[C@@H](CC(N)=O)C(=O)N[C@@H](CO)C(=O)N[C@@H](Cc1ccc(O)cc1)C(=O)N[C@@H](CCCNC(=N)N)C(=O)N[C@@H](CCCCN)C(=O)N[C@H](C(=O)N[C@@H](CC(C)C)C(=O)NCC(=O)N[C@@H](CCC(N)=O)C(=O)N[C@@H](CC(C)C)C(=O)N[C@@H](CO)C(=O)N[C@@H](C)C(=O)N[C@@H](CCCNC(=N)N)C(=O)N[C@@H](CCCCN)C(=O)N[C@@H](CC(C)C)C(=O)N[C@@H](CC(C)C)C(=O)N[C@@H](CCC(N)=O)C(=O)N[C@@H](CC(=O)O)C(=O)N[C@H](C(=O)N[C@@H](CCSC)C(=O)N[C@@H](CO)C(=O)N[C@@H](CCCNC(=N)N)C(=O)N[C@@H](CCC(N)=O)C(=O)N[C@@H](CCC(N)=O)C(=O)NCC(=O)N[C@@H](CCC(=O)O)C(=O)N[C@@H](CO)C(=O)N[C@@H](CC(N)=O)C(=O)N[C@@H](CCC(N)=O)C(=O)N[C@@H](CCC(=O)O)C(=O)O)[C@@H](C)CC)C(C)C)[C@@H](C)O [Example VI, PGRF(1-37)-free acid] | – | very substantial biological potency | –
5 | CC[C@H](C)[C@H](NC(=O)[C@H](C)NC(=O)[C@H](CC(=O)O)NC(=O)[C@H](C)NC(=O)[C@@H](N)Cc1ccc(O)cc1)C(=O)N[C@@H](Cc1ccccc1)C(=O)N[C@H](C(=O)N[C@@H](CC(N)=O)C(=O)N[C@@H](CO)C(=O)N[C@@H](Cc1ccc(O)cc1)C(=O)N[C@@H](CCCNC(=N)N)C(=O)N[C@@H](CCCCN)C(=O)N[C@H](C(=O)N[C@@H](CC(C)C)C(=O)NCC(=O)N[C@@H](CCC(N)=O)C(=O)N[C@@H](CC(C)C)C(=O)N[C@@H](CO)C(=O)N[C@@H](C)C(=O)N[C@@H](CCCNC(=N)N)C(=O)N[C@@H](CCCCN)C(=O)N[C@@H](CC(C)C)C(=O)N[C@@H](CC(C)C)C(=O)N[C@@H](CCC(N)=O)C(=O)N[C@@H](CC(=O)O)C(=O)N[C@H](C(=O)N[C@@H](CCSC)C(=O)N[C@@H](CO)C(=O)N[C@@H](CCCNC(=N)N)C(=O)N[C@@H](CCC(N)=O)C(=O)N[C@@H](CCC(N)=O)C(=O)NCC(=O)N[C@@H](CCC(=O)O)C(=O)N[C@@H](CO)C(=O)N[C@@H](CC(N)=O)C(=O)N[C@@H](CCC(N)=O)C(=O)N[C@@H](CCC(=O)O)C(N)=O)[C@@H](C)CC)C(C)C)[C@@H](C)O [Example VIA, PGRF(1-37)-amide] | – | very substantial biological potency | –
